# Reference: publication PMC7819943, “Rice protein-binding microarrays: a tool to detect cis-acting elements near promoter regions in rice”
# The list shows a part of the results.
# Biological target: T1, OsSMF1 (Oryza sativa, UniProt Q6ZLB0 1-436)
# T1 sequence: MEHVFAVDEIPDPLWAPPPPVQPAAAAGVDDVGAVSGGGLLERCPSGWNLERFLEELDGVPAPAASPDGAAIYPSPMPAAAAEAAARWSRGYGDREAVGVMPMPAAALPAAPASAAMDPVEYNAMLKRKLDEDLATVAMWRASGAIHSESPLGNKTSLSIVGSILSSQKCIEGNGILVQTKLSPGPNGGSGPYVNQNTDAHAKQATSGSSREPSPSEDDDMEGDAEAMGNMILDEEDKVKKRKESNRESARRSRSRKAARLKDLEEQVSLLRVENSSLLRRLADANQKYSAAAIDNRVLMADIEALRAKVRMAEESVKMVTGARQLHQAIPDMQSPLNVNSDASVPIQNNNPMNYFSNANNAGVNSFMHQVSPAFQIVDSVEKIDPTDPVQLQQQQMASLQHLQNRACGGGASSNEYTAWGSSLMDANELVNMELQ
# Assay: protein-binding microarray (RPBM); PBS, 2% BSA, 51.3 ng/ul salmon testes DNA, 50 uM zinc acetate, 200 nM TF, 25 C, 1 h; high values mean tight binding
# Conditions: protein: recombinant; tags: N-terminal polyhistidine and DsRed monomer fusion (pET32a); chain copies: 2; label: CyDye5-dUTP incorporated in the synthesized complementary strand; 3' TTTTT single-stranded linker to array surface; dsDNA, one strand shown
# Procedure, shortened: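 An Axon 4000B scanner gave the binding signal as per-feature fluorescence intensity in arbitrary units. This followed washing of a custom Agilent array that had been incubated for 1 h at 25 °C with 200 nM protein in PBS, 2% BSA, salmon testes DNA and 50 µM zinc acetate. The proteins were transcription factors fused at the N-terminus to polyhistidine and DsRed, expressed in E. coli BL21-CodonPlus and purified on Ni–NTA.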
row,Sequence,binding signal
1,TAATCAAACACTTATCCATGTGGCAAATCTATGGGCCTCCCGGAGTCACCTAGTGCAG,3390 fluorescence intensity (a.u.)
2,TCATTCGTAAGGCCGTCAGCAATATCTTCTATAGGTTCGTCGGAGTCACCTAGTGCAG,3700 fluorescence intensity (a.u.)
3,GTCCACGATTAATCCACGTACATACCAGGTGATTGTGCAACGGAGTCACCTAGTGCAG,3950 fluorescence intensity (a.u.)
4,GTTAGCGCATGGCAGCCACGTGGTGGCACGGGGACAGCGCCGGAGTCACCTAGTGCAG,8490 fluorescence intensity (a.u.)
5,ATTGCCGTGAGCCCGTGACTACTCTTTACTCTTTCTTTTCCGGAGTCACCTAGTGCAG,3380 fluorescence intensity (a.u.)
6,GGTGGCCGGGAAGGAGAGGCACGGGATCGACGATCTGGTGCGGAGTCACCTAGTGCAG,14700 fluorescence intensity (a.u.)
7,TGTGGGAGTATCTTCAACAACGCTATCAACAGAGCAGTGCCGGAGTCACCTAGTGCAG,7820 fluorescence intensity (a.u.)
8,ACTCTTAATTAATGAGTTGATGATGTTGACTAAATTAAGGCGGAGTCACCTAGTGCAG,3340 fluorescence intensity (a.u.)
9,TGCTTCATCGCGGCCAACGCCACCGCCGTCCACCGTCATCCGGAGTCACCTAGTGCAG,3260 fluorescence intensity (a.u.)
10,TAACGAACACGTGGCCAGATACCCTGACAAAATTCACCAGCGGAGTCACCTAGTGCAG,8190 fluorescence intensity (a.u.)
11,TTGTTGAAATTGGACTTGGGAGCCACGAGTCCACGTGACACGGAGTCACCTAGTGCAG,3560 fluorescence intensity (a.u.)
12,CTGATTAATTGACCCACCGACTAAACTTGCACAGTCACCACGGAGTCACCTAGTGCAG,7530 fluorescence intensity (a.u.)
13,AATCCCAGTGCGTGCCTCCGCCTCCACCTCCACCTCGTCACGGAGTCACCTAGTGCAG,22000 fluorescence intensity (a.u.)
14,CTATTTTGAATTACAAGCCACGCATAGAATTTGCATTTTGCGGAGTCACCTAGTGCAG,4350 fluorescence intensity (a.u.)
15,TGCCGTGCCGGCCGCGCGCTCGCCACATAAGCACATACGGCGGAGTCACCTAGTGCAG,4840 fluorescence intensity (a.u.)
16,TTAGAAACTTTCTCTAGATCACCCTTCTATTAGTGAGACACGGAGTCACCTAGTGCAG,3200 fluorescence intensity (a.u.)
17,ACTTGAGGATGTGAAGATGATTGGTTAGGTACAGTGTTTGCGGAGTCACCTAGTGCAG,24800 fluorescence intensity (a.u.)
18,GATTTGCTTACATGAATAAGGTTGATTTGCATCGGCAAGACGGAGTCACCTAGTGCAG,4000 fluorescence intensity (a.u.)
19,ACTATATCATTTGCACTGTGCTTGCGTTGTACGTATGCCACGGAGTCACCTAGTGCAG,3510 fluorescence intensity (a.u.)
20,TGGCCTCCTCCGCCGTCCACGTGAGGCAGGCAGGGCTAACCGGAGTCACCTAGTGCAG,4120 fluorescence intensity (a.u.)
21,TACTTGGAACGATTTGCTACCAGCGAATCGCGTGGCAATCCGGAGTCACCTAGTGCAG,3480 fluorescence intensity (a.u.)

# Shown with bars between the fields: part of the list above
row | Sequence | binding signal
3 | GTCCACGATTAATCCACGTACATACCAGGTGATTGTGCAACGGAGTCACCTAGTGCAG | 3950 fluorescence intensity (a.u.)
15 | TGCCGTGCCGGCCGCGCGCTCGCCACATAAGCACATACGGCGGAGTCACCTAGTGCAG | 4840 fluorescence intensity (a.u.)

# Additional records.

row,Sequence,binding signal
1,ACCACCACCACCACCGTCACCCAACTATTCTATTCTGAATCGGAGTCACCTAGTGCAG,3330 fluorescence intensity (a.u.)
2,AAAAGAACACTGCCCAAAGGCCCAGATAACTAGACATCCCCGGAGTCACCTAGTGCAG,5010 fluorescence intensity (a.u.)
3,CGATCGATCGATTGTGAGCACCGAACTCCCTTAATTAGGACGGAGTCACCTAGTGCAG,3390 fluorescence intensity (a.u.)
4,AGCACAGACACAAACACAACCCTCTCTTACGTCAGAGCACCGGAGTCACCTAGTGCAG,9570 fluorescence intensity (a.u.)
5,ACGGGAAGGGGAAAAGAAGGAATGAGAAGGGGTAATCTAGCGGAGTCACCTAGTGCAG,21400 fluorescence intensity (a.u.)
6,TGTAGAGGTTGGTGGGTGGGTCGATTGGCTTAGCGAGAGGCGGAGTCACCTAGTGCAG,3510 fluorescence intensity (a.u.)
7,CCACGAACGAGTTGTTGCGCCACGTCGATGTGCGATTAGACGGAGTCACCTAGTGCAG,11500 fluorescence intensity (a.u.)
8,TCCCCACCCTCCTCCGCAAGCCACGCCTCTCCCCAAAGTTCGGAGTCACCTAGTGCAG,65500 fluorescence intensity (a.u.)
9,CCCCTCCCCATCGTCAGCATCTTTCTTTCTCTTCCCATCCCGGAGTCACCTAGTGCAG,6610 fluorescence intensity (a.u.)
10,GTCGCCACATGACACCATGCGAGACTGTCCACGTCATCATCGGAGTCACCTAGTGCAG,24200 fluorescence intensity (a.u.)
11,TAATAACTTATACTGATATTGATTACTCCCTCCATCCCTACGGAGTCACCTAGTGCAG,3370 fluorescence intensity (a.u.)
12,CACGTCCTCCTCCTCCCGTCACGCTCGCGCAGCTGCTGCTCGGAGTCACCTAGTGCAG,3360 fluorescence intensity (a.u.)
13,TATGTACATGTGGCATAGTATGTCATATATATTGACTATGCGGAGTCACCTAGTGCAG,4460 fluorescence intensity (a.u.)
14,GAGAGCCCAACGAACGTGACGCGACTTGTGAGGCCCAAACCGGAGTCACCTAGTGCAG,6460 fluorescence intensity (a.u.)
15,GCCGCCACCGCCACCGCCACCGCCACGTCCAGCCTCCGGTCGGAGTCACCTAGTGCAG,6740 fluorescence intensity (a.u.)
16,ACGCCGTTGTCCACTACCTCTGTGTCATCCCCAATGCGCCCGGAGTCACCTAGTGCAG,5340 fluorescence intensity (a.u.)
17,GAAGAGAACGCCACATAGACGTGGCACGCTGACATGTGGGCGGAGTCACCTAGTGCAG,8060 fluorescence intensity (a.u.)
18,TCCGTCCCAAAATATAAGAAGTTTTAGAATTGGATACCGTCGGAGTCACCTAGTGCAG,30600 fluorescence intensity (a.u.)
19,AAATAGTAGAAAACGATGCTGAATTGCTGATGTGTTTGTCCGGAGTCACCTAGTGCAG,5930 fluorescence intensity (a.u.)
20,AATCCCTGAACCCGACCCGGACCCAAACAAGGCTACAAACCGGAGTCACCTAGTGCAG,3310 fluorescence intensity (a.u.)
21,TTTCCCTTATAGGTTCATTTAGATTTAAAAGATAAGATTTCGGAGTCACCTAGTGCAG,19400 fluorescence intensity (a.u.)
